Measurements reported in PMC6529516.

Molecular target: Tubulin, endogenous (Drosophila (endogenous in adult fly heads))
Assay: co-IP; wild type adult fly head lysates; IP with antibodies to the endogenous proteins (anti-Tub, anti-Futsch, anti-Ringer), immunoblot; ringer-/- or futsch-/- lysates as controls

binding: binds
B1: Ringmaker (Ringer), Drosophila homolog of human TPPP, endogenous (protein, UniProt Q9VV43 1-192)
chain: MSEVAAANGSPSPAPTPEVPATELAQLALEDEPKVSFSDQFKAFSKFGDSKSDGKLITLSQSDKWMKQAKVIDKKITTTDTGIHFKKFKAMKISLSDYNKFLDDLAKTKKVELSEIKQKLASCGAPGVVSVSAGKAAAAVDRLTDTSKYTGSHKERFDASGKGKGIAGRRNVVDGSGYVSGYQHKDTYDNAH

No constants are given. Whether binding was seen depends on the method and setting. In cells and extracts the contact can be indirect. Binding calls can cover weak binding; strength is not graded here.
